PubChem BioAssay AID720703 | Peter MacCallum Cancer Centre, 2013

Assay: 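Find kinases that boost or dampen angiotensin II-triggered EGFR transactivation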 (primary screen)
Cell system: immortalised, SV40-transformed mammary epithelial cells from human, with stable expression of tagged AT1R
Reagents: siRNA pool against human genes, 40 nM siRNA pool per well
Duration: 72 h from transfection to lysis and read-out
Conditions: angiotensin II stimulation (dose and duration not given); EGFR inhibitor AG1478 also listed
Measurement: 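AlphaScreen bead assay of phosphorylated ERK1/2 in cell lysates, corrected for well confluency, converted to robust z-scores and averaged across two technical replicate plates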
Reading the numbers: phospho-ERK z-score: higher = more ERK phosphorylation after angiotensin II, relative to plate
Active means: 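Pools were ordered by robust z-score and 50 top-ranked pools, whether they raised or lowered the signal, were chosen for secondary testing; no numeric threshold was reported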
Calls: active = picked for secondary screen; inactive = not picked
In all, the deposit lists 714 reagents; this is a random part of them. 50 of all reagents (7%) count as active. 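Chosen pools sit at both extremes, so both low and high scores count as candidates; some pools appear more than once.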

{"gene symbol":"SPEG","phospho-ERK z-score, replicate mean":-0.75,"activity call":"inactive"}
{"gene symbol":"HSPB8","phospho-ERK z-score, replicate mean":1.01,"activity call":"inactive"}
{"gene symbol":"CDKN2D","phospho-ERK z-score, replicate mean":1.66,"activity call":"inactive"}
{"gene symbol":"MAP4K2","phospho-ERK z-score, replicate mean":1.36,"activity call":"inactive"}
{"gene symbol":"BRAF","phospho-ERK z-score, replicate mean":2.58,"activity call":"inactive"}
{"gene symbol":"TWF2","phospho-ERK z-score, replicate mean":1.76,"activity call":"inactive"}
{"gene symbol":"UCK2","phospho-ERK z-score, replicate mean":0.99,"activity call":"inactive"}
{"gene symbol":"HK3","phospho-ERK z-score, replicate mean":-0.98,"activity call":"inactive"}
{"gene symbol":"MKNK1","phospho-ERK z-score, replicate mean":0.16,"activity call":"inactive"}
{"gene symbol":"PRKAA2","phospho-ERK z-score, replicate mean":0.38,"activity call":"inactive"}
{"gene symbol":"MYLK2","phospho-ERK z-score, replicate mean":-0.46,"activity call":"inactive"}
{"gene symbol":"TNNI3K","phospho-ERK z-score, replicate mean":0.08,"activity call":"inactive"}
{"gene symbol":"PRKCI","phospho-ERK z-score, replicate mean":-1.11,"activity call":"active"}
{"gene symbol":"TP53RK","phospho-ERK z-score, replicate mean":-0.14,"activity call":"inactive"}
{"gene symbol":"SRPK2","phospho-ERK z-score, replicate mean":-0.5,"activity call":"inactive"}
{"gene symbol":"CDC7","phospho-ERK z-score, replicate mean":-0.3,"activity call":"inactive"}
{"gene symbol":"PHKA1","phospho-ERK z-score, replicate mean":-0.48,"activity call":"inactive"}
{"gene symbol":"IKBKE","phospho-ERK z-score, replicate mean":-0.32,"activity call":"inactive"}
{"gene symbol":"DBF4","phospho-ERK z-score, replicate mean":-1.52,"activity call":"active"}
{"gene symbol":"HK2","phospho-ERK z-score, replicate mean":-0.16,"activity call":"inactive"}
{"gene symbol":"FRK","phospho-ERK z-score, replicate mean":4.58,"activity call":"active"}
{"gene symbol":"PSKH2","phospho-ERK z-score, replicate mean":3.75,"activity call":"active"}
{"gene symbol":"TGFBR3","phospho-ERK z-score, replicate mean":0.7,"activity call":"inactive"}

The list goes on; the last 3 above are carried over.
{"gene symbol":"FRK","phospho-ERK z-score, replicate mean":4.58,"activity call":"active"}
{"gene symbol":"PSKH2","phospho-ERK z-score, replicate mean":3.75,"activity call":"active"}
{"gene symbol":"TGFBR3","phospho-ERK z-score, replicate mean":0.7,"activity call":"inactive"}
{"gene symbol":"NIM1K","phospho-ERK z-score, replicate mean":-0.66,"activity call":"inactive"}
{"gene symbol":"MAP4K4","phospho-ERK z-score, replicate mean":0.66,"activity call":"inactive"}
{"gene symbol":"LRRK1","phospho-ERK z-score, replicate mean":-0.76,"activity call":"inactive"}
{"gene symbol":"STK31","phospho-ERK z-score, replicate mean":0.12,"activity call":"inactive"}
{"gene symbol":"COASY","phospho-ERK z-score, replicate mean":3.8,"activity call":"active"}
{"gene symbol":"FCSK","phospho-ERK z-score, replicate mean":0.38,"activity call":"inactive"}
{"gene symbol":"CKS2","phospho-ERK z-score, replicate mean":0.2,"activity call":"inactive"}
{"gene symbol":"OBSCN","phospho-ERK z-score, replicate mean":0.51,"activity call":"inactive"}
{"gene symbol":"CDK1","phospho-ERK z-score, replicate mean":0.55,"activity call":"inactive"}
{"gene symbol":"MAST1","phospho-ERK z-score, replicate mean":1.5,"activity call":"inactive"}
{"gene symbol":"PIK3C2A","phospho-ERK z-score, replicate mean":1.68,"activity call":"inactive"}
{"gene symbol":"CSNK1E","phospho-ERK z-score, replicate mean":-0.64,"activity call":"inactive"}
{"gene symbol":"MAP3K5","phospho-ERK z-score, replicate mean":0.8,"activity call":"inactive"}
{"gene symbol":"CAMKV","phospho-ERK z-score, replicate mean":-0.37,"activity call":"inactive"}
{"gene symbol":"TJP2","phospho-ERK z-score, replicate mean":0.15,"activity call":"inactive"}
{"gene symbol":"MAP3K3","phospho-ERK z-score, replicate mean":-0.36,"activity call":"inactive"}
{"gene symbol":"DLG1","phospho-ERK z-score, replicate mean":-1.02,"activity call":"active"}
{"gene symbol":"MAST3","phospho-ERK z-score, replicate mean":0.32,"activity call":"inactive"}
{"gene symbol":"NEK8","phospho-ERK z-score, replicate mean":1.76,"activity call":"inactive"}
{"gene symbol":"PIK3R3","phospho-ERK z-score, replicate mean":-0.07,"activity call":"inactive"}
{"gene symbol":"EFNA4","phospho-ERK z-score, replicate mean":-0.08,"activity call":"inactive"}
{"gene symbol":"PRKX","phospho-ERK z-score, replicate mean":0.36,"activity call":"inactive"}
{"gene symbol":"DTYMK","phospho-ERK z-score, replicate mean":1.48,"activity call":"inactive"}
{"gene symbol":"DDR2","phospho-ERK z-score, replicate mean":1.99,"activity call":"inactive"}
